Measurements published in patent US10815241B2, “Optically active azabicyclo ring derivative” (priority 2018, dated 2020).
At least one structure is not confirmed: it was looked up by name or label, or the drawing left a doubt.

By UniProt entry, the sequences of proteins in these tests, tags left out. Chains listed by the source or under a name are the forms on record and can include a tag or linker.
UniProt O00255, other isoform, or with tags, fused parts or gaps: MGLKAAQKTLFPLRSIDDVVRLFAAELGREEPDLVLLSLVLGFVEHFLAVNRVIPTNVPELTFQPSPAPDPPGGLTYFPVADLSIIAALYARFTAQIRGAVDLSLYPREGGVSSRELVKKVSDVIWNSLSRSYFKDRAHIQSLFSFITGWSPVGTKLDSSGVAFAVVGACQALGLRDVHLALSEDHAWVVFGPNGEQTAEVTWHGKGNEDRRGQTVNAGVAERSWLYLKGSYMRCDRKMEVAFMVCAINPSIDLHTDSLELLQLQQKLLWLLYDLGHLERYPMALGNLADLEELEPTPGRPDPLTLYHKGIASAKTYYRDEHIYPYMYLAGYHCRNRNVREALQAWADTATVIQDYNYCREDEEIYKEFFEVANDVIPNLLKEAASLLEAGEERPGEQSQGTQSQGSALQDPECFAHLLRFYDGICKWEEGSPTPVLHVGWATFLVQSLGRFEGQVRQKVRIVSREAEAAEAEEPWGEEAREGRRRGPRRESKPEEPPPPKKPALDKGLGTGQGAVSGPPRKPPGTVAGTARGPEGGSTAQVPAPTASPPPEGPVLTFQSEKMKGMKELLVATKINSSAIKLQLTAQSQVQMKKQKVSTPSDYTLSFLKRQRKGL

Columns and labels:
[1] = target: Menin-MLL binding (His-Menin1-615 / MLL1-172-FLAG) (Homo sapiens (Human), UniProt O00255); assay: Test 1: inhibition of the Menin-MLL binding (HTRF); conditions: statement in words on the table of Test 1
Description: After the incubation, the signal was detected with RUBYstar (BMG LABTECH).

RS4; 11 cells = assay: Test 2: inhibition of cell proliferation, RS4;11; type: cell-based; conditions: statement in words; RS4;11 and MOLM-13 cells
Description: RS4; 11 cells were obtained from American Type Culture Collection (ATCC). […] MOLM-13 cells were separately obtained from DSMZ (Deutsche Sammlung von Mikroorganismen und Zellkulturen GmbH).
The cells were plated to a 96-well plate in 2000 cells/well, each test compound was added thereto to adjust the final concentration of DMSO to 0.1% of DMSO, and the cells were cultured for 7 days. After the cultivation, the cell viability was calculated with PrestoBlue™ Cell Viability Reagent (Invitrogen, A13261).

MEIS1 = assay: Test 3: inhibition of mRNA transcription, MEIS1 in MV4;11 cells; type: cell-based; conditions: statement in words; MEIS1 and HOXA9, MV4;11 cells
From the text: MV4; 11 cells were obtained from American Type Culture Collection (ATCC). […] The expression level of each obtained gene (MEIS1 and HOXA9) was fitted with the expression level of mRNA of GAPDH.

| Structure (SMILES) | Menin-MLL binding inhibition activity [1] | cell proliferation inhibition activity (RS4; 11 cells) | mRNA transcription inhibition activity (MEIS1) |
| --- | --- | --- | --- |
| C=C1C[C@H]2CC[C@@H]1N[C@@H]2C(=O)N1CCC2(CC1)CN(c1ncncc1Oc1ccc(F)cc1C(=O)N(C(C)C)C(C)C)C2 [Example 8, 5-fluoro-2-[(4-{7-[(1S,3S,4R)-6-methylidene-2-azabicyclo[2.2.2]octane-3-carbonyl]-2,7-diazaspiro[3.5]nonan-2-yl}pyrimidin-5-yl)oxy]-N,N-di(propan-2-yl)benzamide] | potent | potent | showed the mRNA transcription inhibition activity |
| C=C1C[C@H]2CC[C@@H]1N[C@@H]2C(=O)N1CC2(C1)CN(c1ncncc1Oc1ccc(F)cc1C(=O)N(C(C)C)C(C)C)C2 [Example 9, 5-fluoro-2-[(4-{6-[(1S,3S,4R)-6-methylidene-2-azabicyclo[2.2.2]octane-3-carbonyl]-2,6-diazaspiro[3.3]heptan-2-yl}pyrimidin-5-yl)oxy]-N,N-di(propan-2-yl)benzamide] | potent | potent | showed the mRNA transcription inhibition activity |
| CC(C)N(C(=O)c1cc(F)ccc1Oc1cncnc1N1CC2(CCN(C(=O)[C@H]3N[C@H]4CC[C@@H]3[C@H](F)[C@@H]4CC3CC3)CC2)C1)C(C)C [Example 19, 2-[(4-{7-[(1S,3S,4S,5R,6R)-6-(cyclopropylmethyl)-5-fluoro-2-azabicyclo[2.2.2]octane-3-carbonyl]-2,7-diazaspiro[3.5]nonan-2-yl}pyrimidin-5-yl)oxy]-5-fluoro-N,N-di(propan-2-yl)benzamide] |  | potent |  |
